Measured values reported in US20060211740A1, “Novel compounds” (priority 2003, published 2006).
Some entries share one result that the patent states for a list of compounds.

By UniProt entry, the sequences of proteins in these tests, tags left out. Residues count along the entry.
UniProt P56817, 46-501: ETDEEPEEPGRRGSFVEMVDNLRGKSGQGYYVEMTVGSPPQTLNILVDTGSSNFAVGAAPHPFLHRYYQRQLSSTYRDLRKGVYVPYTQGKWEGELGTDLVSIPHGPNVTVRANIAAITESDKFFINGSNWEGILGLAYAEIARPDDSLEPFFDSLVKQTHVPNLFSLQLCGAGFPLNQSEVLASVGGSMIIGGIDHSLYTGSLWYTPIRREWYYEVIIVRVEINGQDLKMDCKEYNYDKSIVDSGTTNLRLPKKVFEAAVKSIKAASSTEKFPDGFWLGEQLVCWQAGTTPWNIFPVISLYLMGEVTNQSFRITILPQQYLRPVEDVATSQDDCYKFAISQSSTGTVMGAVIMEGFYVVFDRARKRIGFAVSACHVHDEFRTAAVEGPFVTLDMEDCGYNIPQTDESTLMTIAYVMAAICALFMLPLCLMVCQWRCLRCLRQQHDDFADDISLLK
UniProt P07339, 65-412, species assumed: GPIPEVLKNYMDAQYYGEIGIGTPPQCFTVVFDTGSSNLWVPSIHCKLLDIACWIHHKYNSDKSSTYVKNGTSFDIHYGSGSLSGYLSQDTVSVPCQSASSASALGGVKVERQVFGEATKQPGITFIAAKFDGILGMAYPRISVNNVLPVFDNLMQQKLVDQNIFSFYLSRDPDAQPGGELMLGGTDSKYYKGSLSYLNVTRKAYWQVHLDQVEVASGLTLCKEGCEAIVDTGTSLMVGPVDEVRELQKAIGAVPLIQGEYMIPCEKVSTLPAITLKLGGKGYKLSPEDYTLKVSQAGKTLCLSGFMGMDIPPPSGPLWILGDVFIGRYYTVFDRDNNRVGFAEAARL

Columns and labels:
[1] = biological target: Asp-2 (Homo sapiens, UniProt P56817); test: Asp-2 Inhibitory Assay; type: biochemical; conditions: FAM-[SEVNLDAEFK]-TAMRA substrate, pH 4.5, 1 h at room temperature, fluorescence; read-out: inhibition (Asp2), Assay (I)
Experimental: (I) Asp-2 Inhibitory Assay
(§1) For each compound being assayed, in a 384 well plate, is added:—
(§2) a) 1 μl of a DMSO solution of the test compound (IC50 curve uses ten 1 in 2 serial dilutions from 500 μM).
This is prepared by diluting 2 ml of a 2 mM DMSO solution of the substrate into 400 ml of buffer (100 mM Sodium acetate pH=4.5, 1 l Milli-Q water, 0.06% Triton X-100 (0.5 ml/l), pH adjusted to 4.5 using glacial acetic acid). Aminomethyl fluorescein (FAM) and tetramethyl rhodamine (TAMRA) are fluorescent molecules which co-operate to emit fluorescence at 535 nm upon cleavage of the […] peptide.
c) 10 μl enzyme solution. This is prepared by diluting 16 ml of a 500 nM enzyme solution into 384 ml of buffer (prepared as above).
(§3) Blank wells (enzyme solution replaced by buffer) are included as controls on each plate. Wells are incubated for 1 h at room temperature and fluorescence read using a Tecan Ultra Fluorimeter/Spectrophotometer (485 nm excitation, 535 nm emission).

[2] = biological target: Cathepsin D (Homo sapiens, UniProt P07339); test: Cathepsin D Inhibitory Assay; type: biochemical; conditions: FAM-[SEVNLDAEFK]-TAMRA substrate, pH 4.5, 1 h at room temperature, fluorescence; read-out: inhibition (CatD), Assay (II)
Experimental: (II) Cathepsin D Inhibitory Assay
as §1, §2
This is prepared by diluting 2 ml of a 2 mM DMSO solution of the substrate into 400 ml of buffer (100 mM Sodium acetate pH=4.5, 1 l Milli-Q water, 0.06% Triton X-100 (0.5 ml/l), pH adjusted to 4.5 using glacial acetic add).
c) 10 μl enzyme solution. This is prepared by diluting 1.6 ml of a 200 unit/ml (in 10 mM HCl) enzyme solution into 398.4 ml of buffer (prepared as above).
as §3

Which IC50 [1] does the source give for “N-[(1S,2R)-1-Benzyl-2-hydroxy-3- (3-trifluoromethyl-benzylamino)- propyl]-cyclohexyl- (methanesulfonyl-phenyl-amino)- benzamide [Example E50]” here?
The IC50 was 1 to 100 nM.

And the IC50 [2]?
The IC50 was 200 to 2500 nM.
